Some of the results follow. The main result of the screen is listed elsewhere. These columns were measured beside it and carry no call. Most of these compounds were active or inconclusive in the main read-out, so they are no random draw. Words in brackets tell the shape of the fitted curve; partial curves, single points and poor fits give uncertain potencies.
Experiment: qHTS Assay for Lipid Storage Modulators in Drosophila S3 Cells;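 for cell number change: cells counted by Cell Tracker Red CMTPX staining in the red channel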
Details: BODIPY lipid droplet fluorescence, 18-24 h; for cell number change: measured here: cell count max response, cells fed with added oleic acid
How it was run: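 Drosophila S3 cells got compounds at several concentrations plus oleic acid (400 uM solution). Laser-scanning cytometry with 488 nm excitation read lipid droplets at 500-530 nm and cells at 575-640 nm. Percent activity was relative to 20 uM Triacsin C.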

[1] = measured here: lipid fluorescence (Fed channel) AC50, cells fed with added oleic acid
[2] = measured here: cell number channel AC50, cells fed with added oleic acid

Compound: Cc1ccc(C(=O)N2CCN(c3ccccn3)CC2)cc1Cl
- cell number change: -17%
- AC50 [1]: 0.58 µM [falling, partial curve, poor fit]

Compound: COc1ccc(Br)cc1/C=N/NC(=O)CN1CCCCC1
- cell number change: 7.45%
- AC50 [1]: 0.116 µM [rising, full curve]

Compound: O=C(O)/C=C/C(=O)N1CCN(c2ccccc2F)CC1
- cell number change: -19.9%
- AC50 [1]: 0.651 µM [falling, full curve, poor fit]

Compound: COc1nc(N)nc(N2CCOCC2)n1
- cell number change: -20.2%
- AC50 [1]: 7.31 µM [falling, partial curve, poor fit]

Compound: COc1ccc(OC)c(C(C)NC(=O)c2ccco2)c1 (stereo not drawn)
- cell number change: -3.45%

Compound: O=C(O)c1cc2cccc(S(=O)(=O)N3CCCCC3)c2cc1O
- cell number change: -35.7%
- AC50 [2]: 0.146 µM [falling, full curve]

Compound: CC1=C(C(=O)OC(C)C)C(c2ccc3c(c2)OCO3)NC(=O)N1 (stereo not drawn)
- cell number change: -25.5%
- AC50 [1]: 29.1 µM [falling, single point]

Compound: Cc1cc(=O)[nH]c(SCC(=O)Nc2ccc(S(N)(=O)=O)cc2)n1
- cell number change: -0.638%
- AC50 [1]: 6.51 µM [falling, partial curve]

Compound: CCN1CCN(C(=O)CCc2nnc(CCc3ccc(OC)cc3)o2)[C@@H](C)C1=O
- cell number change: -1.16%
- AC50 [1]: 18.4 µM [rising, single point]

Compound: Cc1ccc(C(=O)NC2CCC(C)CC2)s1 (stereo not drawn)
- AC50 [2]: 0.146 µM [falling, full curve, poor fit]

Compound: CC(C)(Oc1ccc(Cl)cc1)C(=O)NCCCn1ccnc1
- cell number change: 9.56%
- AC50 [2]: 0.092 µM [falling, full curve, poor fit]
- AC50 [1]: 1.84 µM [rising, single point]

Compound: FC(F)(F)c1ccc2c(c1)nc1n2CCCC1
- cell number change: 131%
- AC50 [2]: 25.9 µM [rising, partial curve]

Compound: CCOC(=O)c1c(C)oc2ccc(NS(=O)(=O)c3ccc(C(=O)O)cc3)cc12
- cell number change: 4.72%
- AC50 [1]: 0.0259 µM [falling, full curve, poor fit]

Compound: COc1ccc(NC(=O)NCCCCc2ccccc2)c(OC)c1
- cell number change: -52.5%
- AC50 [2]: 14.1 µM [falling, single point]
- AC50 [1]: 17.8 µM [falling, single point]

Compound: CCn1nc(NC(=O)Cc2ccc(OC)cc2)c2cc3cccc(C)c3nc21
- cell number change: -43%
- AC50 [2]: 25.9 µM [falling, single point]
- AC50 [1]: 29.1 µM [falling, single point]

Compound: O=C(CCNS(=O)(=O)c1cccc2nsnc12)NCc1cccs1
- cell number change: 46%
- AC50 [2]: 10.3 µM [rising, partial curve]

Compound: CC(=O)c1ccc(N=Nc2ccc(N(C)C)cc2)cc1
- cell number change: 11.1%

Compound: Cc1c(C(=O)NCCc2ccc3c(c2)OCCO3)oc2ccccc12
- AC50 [2]: 4.11 µM [rising, single point]
- AC50 [1]: 4.61 µM [rising, single point]

Compound: CN(Cc1cccs1)C(=O)CCCc1c[nH]c2ccccc12
- cell number change: 105%
- AC50 [2]: 20.6 µM [rising, single point]

Compound: CC(=O)Nc1cccc(NC(=O)c2ccc([N+](=O)[O-])cc2Cl)c1
- cell number change: 40.2%
- AC50 [2]: 29.1 µM [rising, single point]
- AC50 [1]: 29.1 µM [rising, single point]

Compound: COCCN(CCOC)S(=O)(=O)c1ccc(C(=O)Nc2nnc(C)o2)cc1
- cell number change: -48.3%
- AC50 [2]: 20.6 µM [falling, single point]
- AC50 [1]: 3.66 µM [rising, full curve]

Compound: CC(C)CCNC(=O)NC(=O)COc1c(F)c(F)cc(F)c1F
- cell number change: 0.58%

Compound: Fc1ccc(NC(=S)NCc2cccs2)cc1
- cell number change: -33.3%
- AC50 [2]: 4.61 µM [falling, single point]
- AC50 [1]: 16.4 µM [rising, partial curve, poor fit]

Compound: O=C(CN1C(=O)S/C(=C\c2cccc(Cl)c2)C1=O)NCCCn1ccnc1
- cell number change: -119%
- AC50 [2]: 29.1 µM [falling, single point]
- AC50 [1]: 0.116 µM [falling, full curve, poor fit]

Compound: COc1ccc(OCCSc2ccc(S(=O)(=O)N3CCCC3)cn2)cc1
- cell number change: -6.69%

Compound: COc1ccccc1OC(C)C(=O)Nc1ccccc1C(=O)NCc1cccnc1 (stereo not drawn)
- cell number change: 2.63%

Compound: O=C(NCc1ccc(F)cc1)C(=O)NCC1OCCN1C(=O)c1ccc(Cl)cc1 (stereo not drawn)
- cell number change: 8.76%
- AC50 [1]: 0.0651 µM [rising, full curve, poor fit]

Compound: C=CCn1c(O)c(N=NC(=O)CNC(=O)/C=C/c2ccco2)c2ccccc21
- cell number change: 79.6%
- AC50 [2]: 25.9 µM [rising, single point]
- AC50 [1]: 29.1 µM [rising, single point]

Compound: COc1cccc(C(=O)NCCS(=O)(=O)NCc2cccnc2)c1
- AC50 [1]: 0.146 µM [falling, full curve, poor fit]

Compound: COC1CCN(C(=O)C2CCC(=O)N(C3CCCCCC3)C2)CC1 (stereo not drawn)
- cell number change: 0.85%

Compound: O=C(CSc1nc(C(F)(F)F)cc(=O)[nH]1)Nc1nccs1
- cell number change: -5.39%

Compound: COc1ccc(OCC(=O)Nc2cc3c(cc2C(=O)O)OCCCO3)cc1
- cell number change: 35.7%
- AC50 [2]: 29.1 µM [rising, single point]

Compound: CC(c1ccccc1)C(CC(=O)O)C(=O)Nc1ccc(Cl)c(Cl)c1 (stereo not drawn)
- cell number change: -2.55%

Compound: O=C(Nc1cccc(-c2nc3cccnc3s2)c1)c1ccc(Cl)nc1
- cell number change: 8.57%
- AC50 [1]: 0.731 µM [rising, full curve]

Compound: COc1cc(C(=O)OCCCN=C2NS(=O)(=O)c3ccccc32)cc(OC)c1OC
- cell number change: -9.64%
- AC50 [1]: 0.146 µM [rising, full curve, poor fit]

Compound: Cc1cc(C)c2nc(-c3ccco3)cc(C(=O)O)c2c1
- cell number change: 17.5%
- AC50 [1]: 18.4 µM [rising, single point]

Compound: CCOc1cc(/C=N\NC(=O)Cc2ccccc2)ccc1OCC(=O)Nc1ccc(C)c(C)c1
- cell number change: -26%
- AC50 [2]: 0.58 µM [rising, full curve]
- AC50 [1]: 1.3 µM [rising, full curve]

Compound: Cc1cc(OCC(=O)Nc2ccc(N3CCCC3)cc2)cc(C)c1Cl
- cell number change: 82.1%
- AC50 [2]: 29.1 µM [rising, single point]
- AC50 [1]: 6.51 µM [falling, single point]

Compound: C=CCN(c1cccc(C(F)(F)F)c1)S(=O)(=O)c1cccc(C(=O)OCC(=O)Nc2ccccc2)c1
- cell number change: 58%
- AC50 [2]: 29.1 µM [rising, single point]

From PubChem BioAssay AID2685 (National Center for Advancing Translational Sciences (NCATS), 2010)
